# Reference: publication PMC10792358 (Clinical Cancer Research, 2023)
# Experiment: Plasma pharmacokinetics
smiles,measurement,setting,value
CCNC(=O)C[C@@H]1N=C(c2ccc(Cl)cc2)c2cc(OC)ccc2-n2c(C)nnc21 [molibresib],effect of fulvestrant on the pharmacokinetics of molibresib,"coadministration, data not shown",lack of effect
same,exposure (Cmax and Ctrough) versus previous monotherapy studies BET115521 and BET116183,"in combination with fulvestrant, data not shown",as anticipated
same,exposure (Cmax) following repeated administration,limited concentration data,reduced
